From patent US20130266605A1, “PEPTIDE INHIBITORS OF CD40L SIGNALING AND USES THEREFOR” (PHYLOGICA LIMITED, priority 2010, published 2013)
These are yes or no findings as the source states them, for the method shown. Some entries that bind do so weakly or less than the wild type.

T1: CD40 ligand (UniProt P29965 108-261, limits assumed)
T1 sequence (looked up): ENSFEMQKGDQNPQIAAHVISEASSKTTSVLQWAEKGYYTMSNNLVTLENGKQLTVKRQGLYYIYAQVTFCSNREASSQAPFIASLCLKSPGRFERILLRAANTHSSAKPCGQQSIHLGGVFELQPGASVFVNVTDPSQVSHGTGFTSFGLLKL


Target: T1, CD40 ligand
Assay: phage display screen on CD40L

| Binder | binding |
| --- | --- |
| PFPDGSSCAPPGWLGGVPCFLQRYMLHQPDARGTLEPTRT [M07_40L_0103_0860] | binds |
| M07_40L_0104_0864 (peptide) peptide: LSGGPDHVPHPEHSTYDFPFPDGSSCAPPGWLGGVPCFLQRYMLHQPDARGTLEPTRT | binds |
| PQPEHSTYDFPFPDGSSCAPPGWLGGVPCFLQRYMLHQPDARGTLEPTRT [M07_40L_0104_0866] | binds |
| M07_40L_0104_0879 (peptide) peptide: LGGGPDHVPHPEHSTYDFPFPDGSSCAPPGWLGGVPCFLQRYMLHQPDARGTLEPTRT | binds |
| PFPDGSSCAPPGWLGGVPCFLQRYMLHQPDARGTLEPTRT [M07_40L_0104_0884] | binds |
| M07_40L_0104_0896 (peptide) peptide: LGGGPDHVPHPEHSTYDFPFPDGSSCAPPGWLGGVPCFLQRYMLHQPDARGTLEPTRM | binds |
| YKEYNYWEKHKDDKCYW [M08_40L_0105_0903] | binds |
| YKEYNYWEKHKDDKCYWNEKDTKN [M08_40L_0105_0904] | binds |
| YKEYNYWEKHKDDKCYWNDGSTR [M09_40L_0105_0922] | binds |
| YKEYNYWEKHKDDKCYWNEKDTKN [M09_40L_0105_0924] | binds |
| M09_40L_0105_0930 (peptide) peptide: RCYYYTENDHNYYWDDHYNSYYVVQYNHKYYWDYHYDCYYVVEKHCKYYYWNTYKEYNYWEKHKDDKYIEGTFKVVTNAAI | binds |
| M09_40L_0105_0934 (peptide) peptide: CYYYTENDHNYYWDDHYNSYYVVQYNHKYYWDYHYDCYYVVEKHCKYYYWNTYKEYNYWEKHKDDK | binds |
| HYTENDHNYYWDDHYNSYYVVQYNHKYYWDYHYDCYYVVEKHC [M07_40L_0103_0847] | binds |
| RWDRPWYSPVTNWSPHCRGLD [M06_40L_0103_0805] | binds |
| WDRPWYSPVTNWSPHCRGLD [M06_40L_0104_0835] | binds |
| LSCSWCSFFPDTKSVSCQD [M06_40L_0103_0812] | binds |
| LSCSWCSFFPDTKSVSCQD [M06_40L_0104_0838] | binds |
| LWDVKTYVSDQDGTGWDLVEQYQNKYGMPNPDGTIGKTLWLDYIQ [M07_40L_0104_0874] | binds |
| RCEDQVDVIAGHRPGDFLLRATLAMDPRVKPADDGGGWSWWFL [M07_40L_0104_0883] | binds |
| M07_40L_0104_0885 (peptide) peptide: REVLQLDDHVHVSPALAVQELLAKPHVGRRAVSVDVIAGHRPGDFLLRATLAMDPRVKPADDGGGWSWWFI | binds |
| M07_40L_0104_0889 (peptide) peptide: LPKYGTDEKQDALRRYYAAYFNVEGGDSGTFTDYKWDCLWSCDNRGGRIVCLRENRYTSE | binds |
| C02_40L_0803_1123 (peptide) peptide: LWWLCYQDDEISTEATNEIGLPKYGTDEKQDALRKYYAAYFNVEGGDSGTFTDYKWDCFWAHRHAIMH | binds |
| C02_40L_0803_1120 (peptide) peptide: LWWLCYQDDEISTEATNEIGLPKYGTDEKQDALRKYYAAYFNVEGGDSGTFTDYKWDCFWAHRHAIMH | binds |
| C02_40L_0803_1145 (peptide) peptide: RGIEVGDPSSGNETGPTGKPFTTTIPSEVGATEISGSGKEIQPAQLMNDLPNSESAEQVRERTRDLVQWFNYALPDFVFVEEDSGYWGDTQDFSMPTGDDYELNTCIFSWYWCGLWSCDNRGGRIVCLRENRYTSEYTGW | binds |
| HLPRPGFCDARSHGDSNFEDLFYFILCGTH [C03_40L_0103_0942] | binds |

| Binder | binding |
| --- | --- |
| C02_40L_0504_1062 (peptide) peptide: RIPETRKAQAALATKYGIYGFCYYHYWFNGRRILESPVDAMLESGEPDFPFMLCWANENWT | binds |
| M08_40L_0105_0902 (peptide) peptide: LLGEDMIEQLGRAHMSWGLGSADRWDLDQTTGIITWTFPDKTAAAPAQILGSFSPGSGSWLWAWANK | binds |
| C02_40L_0205_0998 (peptide) peptide: LGHIWASDVENAASFEPVDVGDEEAYKAGLLWLERLTMSDNGLRQLALFEWDEDGNLTKEWHAE | binds |
| M08_40L_0105_0910 (peptide) peptide: LGHIWASDVENAASFEPVDVGDEEAYKAGLLWLERLTMSDNGLRQLALFEWDEDGNLTKEWHAE | binds |
| M08_40L_0105_0912 (peptide) peptide: LVCTYSYQNDAYRQFFEPDDESALLQELSEYLDDHGSEPIIHYGGNYFDEQCLSRRFDE | binds |
| C02_40L_0304_1027 (peptide) peptide: LLGTPQNNAQAEVNLNINIGGPRYVGNYGPDFIYLDDYGFAVSWGWDYDVIR | binds |
| C02_40L_0205_0996 (peptide) peptide: LLGTPQNNAQAEVNLNINIGGPRYVGNYGPDFIYLDDYGFAVSWGWDYDVIRLGNFYFIYRDGYWF | binds |
| M09_40L_0204_1006 (peptide) peptide: LGDINPLKRIVDSRQSKRLAERYLSESYWGDVIEASDDVWELVACPVDGALDAALWDAWLESLEEG | binds |
| C02_40L_0603_1077 (peptide) peptide: LWIGINTNGMQWNGMQWQRMEWNGMEWHKPEWYGMEWNGMEWNGMEWKGIE | binds |
| M09_40L_0105_0935 (peptide) peptide: LWIGINTNGMQWNGMQWQRMEWNGMEWHKPEWYGMEWNGMEWNGMEWKGIE | binds |
| M09_40L_0105_0931 (peptide) peptide: LWIGINTNGMQWNGMQWQRMEWNGMEWHKPEWYGMEWNGMEWNGMEWKGIE | binds |
| C03_40L_0203_1175 (peptide) peptide: PRMEWNVLQWNGMESNELVSNGTEWNGMDWNAMEWNRMEWNGMEWNQSEWNGRELNGMEWKGMEWNGMEWNGTNPSGME | binds |
| M09_40L_0204_1010 (peptide) peptide: RNEVEWNGMERNGMEWSGMELNGTQWNEVEWSRMEWNGWEWNGMEWNGMEWNGEEWSGVE | binds |
| M07_40L_0104_0893 (peptide) peptide: LWNGIIRNGMERNGMEWNGMEWNGMEWNGMEWVRIEWNGMDSNGIAWNGMDSNAMERNALEWNGMDSKAMEWNGIDWNGMEWNGLEWNHHRMESNGIIEWNRMESSNRLERNRQ | binds |
| M09_40L_0204_1005 (peptide) peptide: PWNEMEWKGIEWNQPEWNGMERNGMEWNGMEWNGMEWNQLDWNGMEWNGLE | binds |
| C02_40L_0104_0979 (peptide) peptide: PWNEMEWKGIEWNQPEWNGMERNGMEWNGMEWNGMEWNQLDWNGMEWNGLE | binds |
| C02_40L_0804_1169 (peptide) peptide: RLEWNGMELNGITPSEMAWKGTEYNLMEWNGINPSGMEWIGMEWNGMEWKGMEWNGMEWFQLE | binds |
| M06_40L_0104_0839 (peptide) peptide: PGVVRSCVEWSGIDWSCEELCGVEWNGVEWKGVEWNGMEWNGMELNGREWSGTEENGVEWSGVERSGSW | binds |
| LWCEWELEWNGMEWNGMEWNGMEWNAMECNGFNSIAMEWNAMEWNQPE [C02_40L_0705_1114] | binds |
| LSLYCRNHRVECFCCHTGGDRSELPSTHYSTSSGFMQVYDFFGVPFVLEY [M09_40L_0205_1016] | binds |
| C02_40L_0105_0983 (peptide) peptide: QVLRTLQVVTCRAGELEIRLETLEDGYPEWHPASYPFQGILKLFFYREITGN | binds |
| C02_40L_0105_0985 (peptide) peptide: QVLRTLQVVTCRAGELEIRLETLEDGYPEWHPASYPFQGILKLFFYREITGN | binds |
| C02_40L_0105_0986 (peptide) peptide: QVLRTLQVVTCRAGELEIRLETLEDGYPEWHPASYPFQGILKLFFYREITGN | binds |
| C02_40L_0105_0987 (peptide) peptide: QVLRTLQVVTCRAGELEIRLETLEDGYPEWHPASYPFQGILKLFFYREITGN | binds |
| C02_40L_0203_0988 (peptide) peptide: LWWDGTVAGLEYFTAGFDGFEIEWADAAGEYGFTKERLYELDSDLHLVDPVWVTMQDNWNRSDTDEVADNIGPWFGNYY | binds |
